Laboratory results: PubChem BioAssay AID652272 (Drosophila RNAi Screening Center, 2013)
The screen tested about 21,000 reagents; below is an unselected part of those with a known target gene and a result. In the full data, 503 (2.4%) were called active. 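Raw plate light values, not normalised; calls rest on replicate z-scores that were not deposited; hits include reporter decreases as well as increases.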 Names joined by + are all predicted targets of the reagent. No sequences are given here. Not given: the amount of reagent, the time to read-out.

Aim: 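Genes whose knock-down decreases or increases Hedgehog reporter output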 (primary screen)
Cell system: Drosophila clone 8 (Cl8) cells
Knock-down reagent: long dsRNA against Drosophila genes
Read-out: 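Plate reader light from a firefly reporter under a ptc promoter fragment that responds to Hedgehog, with Renilla light as transfection reference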
Scale: firefly Hh reporter signal: higher = more ptc reporter light; Renilla reference signal: higher = more Renilla control light
Hit rule: 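Hit when the z-score averaged over two replicates is under -2 or over +3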
Meaning of the calls: active = hit: reporter lowered or raised; inactive = not a hit

target | amplicon | firefly Hh reporter signal, replicate 1 | firefly Hh reporter signal, replicate 2 | firefly Hh reporter signal, replicate 3 | Renilla reference signal, replicate 1 | Renilla reference signal, replicate 2 | call
SCAR | DRSC03426 | 1.50e5 | 66906 | – | 4089 | 6552 | inactive
cpx (complexin) | DRSC11999 | 2.61e5 | – | – | 5666 | – | inactive
CG32816 | DRSC17337 | 4.43e5 | 1.81e5 | – | 22469 | 2802 | inactive
CG8851 | DRSC00718 | 1.10e5 | 53472 | – | 2921 | 5306 | inactive
CG13247 | DRSC11695 | 1.37e5 | 1.16e5 | – | 4469 | 3184 | inactive
Plzf (Promyelocytic leukemia zinc finger) | DRSC02994 | 93568 | 41447 | – | 4274 | 2003 | inactive
TTLL1B (Tubulin tyrosine ligase-like 1B) | DRSC08594 | 46517 | 42112 | – | 4306 | 3275 | inactive
blw (bellwether) | DRSC04675 | 53616 | 53106 | – | 1108 | 4832 | inactive
Cpr47Ef (Cuticular protein 47Ef) | DRSC06336 | 91475 | 68896 | – | 2274 | 5383 | inactive
RpS8 (Ribosomal protein S8) | DRSC16318 | 22803 | 60825 | – | 1361 | 4044 | inactive
CG11444 | DRSC17784 | 83296 | 91036 | – | 1008 | 2709 | inactive
CG17359 | DRSC10265 | 1.08e5 | – | – | 3761 | 2946 | inactive
CG15765 | DRSC18071 | 66952 | 35597 | – | 1845 | 884 | inactive
CG15356 | DRSC00386 | 72346 | 87094 | – | 1752 | 2152 | inactive
CG46441 | DRSC15561 | 1.70e5 | 1.27e5 | – | 6749 | 5393 | inactive
Antp (Antennapedia) | DRSC12490 | 75840 | 51393 | – | 2928 | 1929 | inactive
CG12479 | DRSC19459 | 55909 | 2.06e5 | – | 2102 | 10540 | inactive
Tk (Tachykinin) | DRSC14954 | 1.37e5 | 6.23e5 | 1.29e5 | 5253 | 3195 | inactive
Hsp70Aa + Hsp70Ab | DRSC21246 | 51932 | 1.41e5 | – | 2423 | 6808 | inactive
Unc-76 (Uncoordinated 76) | DRSC18193 | 1.21e5 | 1.41e5 | – | 5036 | 5623 | inactive
Unc-76 (Uncoordinated 76) | DRSC18560 | 1.18e5 | 2.21e5 | – | 5014 | 9056 | inactive
HDAC4 (Histone deacetylase 4) | DRSC19780 | 1.03e5 | 3.20e5 | – | 2537 | 11088 | inactive
CG4278 | DRSC02741 | 78646 | 64353 | – | 3732 | 2752 | inactive
Nrx-1 (Neurexin 1) | DRSC16184 | 1.16e5 | 94004 | – | 3435 | 3098 | inactive
CG7519 | DRSC11834 | 70747 | 1.01e5 | – | 2214 | 2400 | inactive
CG6290 | DRSC19979 | 1.60e5 | 1.16e5 | – | 3749 | 2773 | inactive
CG4982 | DRSC10465 | 5.07e5 | 68825 | – | 3284 | 3284 | inactive
CG8260 | DRSC20098 | 66483 | 1.64e5 | – | 2875 | 6848 | inactive
CG31871 | DRSC02567 | 1.03e5 | 50115 | – | 2357 | 3911 | inactive
CG31871 | DRSC02571 | 1.05e5 | 48455 | – | 1868 | 3717 | inactive
CG11566 (retired record) + stg1 | DRSC20473 | 48018 | 61285 | – | 2081 | 3649 | inactive
CG11566 (retired record) + stg1 | DRSC20481 | 91660 | 1.58e5 | – | 3673 | 7712 | inactive
CG11566 (retired record) + stg1 | DRSC20482 | 1.22e5 | 2.08e5 | – | 4460 | 8677 | inactive
CG11566 (retired record) + stg1 | DRSC20483 | 1.15e5 | 2.23e5 | – | 4224 | 8901 | inactive
Jra (Jun-related antigen) | DRSC07447 | 1.19e5 | 77065 | – | 4299 | 3680 | inactive
peng (penguin) | DRSC20583 | 69688 | 2.12e5 | – | 1067 | 9792 | inactive

Continued, starting with the last 6 of the part before.
target | amplicon | firefly Hh reporter signal, replicate 1 | firefly Hh reporter signal, replicate 2 | firefly Hh reporter signal, replicate 3 | Renilla reference signal, replicate 1 | Renilla reference signal, replicate 2 | call
CG11566 (retired record) + stg1 | DRSC20473 | 48018 | 61285 | – | 2081 | 3649 | inactive
CG11566 (retired record) + stg1 | DRSC20481 | 91660 | 1.58e5 | – | 3673 | 7712 | inactive
CG11566 (retired record) + stg1 | DRSC20482 | 1.22e5 | 2.08e5 | – | 4460 | 8677 | inactive
CG11566 (retired record) + stg1 | DRSC20483 | 1.15e5 | 2.23e5 | – | 4224 | 8901 | inactive
Jra (Jun-related antigen) | DRSC07447 | 1.19e5 | 77065 | – | 4299 | 3680 | inactive
peng (penguin) | DRSC20583 | 69688 | 2.12e5 | – | 1067 | 9792 | inactive
CG11458 | DRSC11666 | 1.15e5 | 1.49e5 | – | 3986 | 4044 | inactive
Bub1 (Bub1 kinase) | DRSC02357 | 35944 | 1.18e5 | – | 2480 | 4709 | inactive
lncRNA:CR40053 (long non-coding RNA:CR40053) | DRSC20833 | 7.04e5 | 2.48e5 | – | 45024 | 5594 | inactive
CG33777 | DRSC08107 | 1.16e5 | 1.91e5 | – | 3287 | 8434 | inactive
Fnta (Farnesyl transferase alpha subunit) | DRSC00557 | 70825 | 45714 | – | 2537 | 2055 | inactive
Tpr2 (Tetratricopeptide repeat protein 2) | DRSC03461 | 1.10e5 | 92724 | – | 4436 | 3850 | inactive
CG7492 | DRSC10855 | 85242 | 43031 | – | 4208 | 1984 | inactive
CG15614 | DRSC06567 | 84426 | 48230 | – | 2189 | 3169 | inactive
klhl10 (kelch like family member 10) | DRSC05274 | 1.14e5 | 2.84e5 | – | 3067 | 10345 | inactive
klhl10 (kelch like family member 10) | DRSC19171 | 5.86e5 | 1.88e5 | – | 33942 | 3937 | inactive
klhl10 (kelch like family member 10) | DRSC20750 | 70381 | 1.66e5 | – | 2626 | 7684 | inactive
klhl10 (kelch like family member 10) | DRSC20925 | 1.33e5 | 2.71e5 | – | 5165 | 12170 | inactive
CG44325 | DRSC18039 | 82269 | 1.81e5 | – | 1987 | 7497 | inactive
CG44325 | DRSC18423 | 87458 | 2.15e5 | – | 2212 | 8864 | inactive
Atg12 (Autophagy-related 12) | DRSC09803 | 41656 | 63965 | 86842 | 5289 | 6905 | inactive
CG42717 | DRSC09411 | 2.22e5 | – | – | 4866 | – | inactive
hth (homothorax) | DRSC16967 | 1.15e5 | 93063 | – | 4273 | 3024 | inactive
maca | DRSC15738 | 58650 | 85911 | – | 1024 | 2664 | inactive
CG13870 | DRSC06429 | 85554 | 39394 | – | 1961 | 235 | inactive
SWIP (Strumpellin and WASH-interacting protein) | DRSC19540 | 83344 | 1.75e5 | – | 2944 | 7193 | inactive
snz (snazarus) | DRSC17969 | 58908 | 2.67e5 | – | 1809 | 10008 | inactive
CG10638 | DRSC09762 | 71530 | 41346 | 35941 | 3858 | 922 | inactive
CG18418 | DRSC08535 | 81856 | 45136 | – | 3867 | 1974 | inactive
NetA (Netrin-A) | DRSC20261 | 72515 | 2.02e5 | – | 2376 | 7360 | inactive
Spt6 | DRSC18836 | 34176 | 36340 | – | 1186 | 1283 | inactive
CG2818 | DRSC00540 | 93560 | 1.21e5 | – | 3520 | 5408 | inactive
Acp95EF + Spase22-23 | DRSC14102 | 6.42e5 | 1.20e5 | – | 30586 | 3812 | inactive
CG14297 | DRSC14776 | 5.30e5 | 1.40e5 | – | 26038 | 3877 | inactive
CG34450 | DRSC17822 | 1.06e5 | 91474 | – | 2841 | 2048 | inactive
DENR (Density regulated protein) | DRSC20151 | 85963 | 76057 | – | 2156 | 2018 | inactive
hbt + CG43779 | DRSC02503 | 73376 | 50697 | – | 1724 | 4162 | inactive
CG1924 | DRSC19823 | 1.00e5 | 2.34e5 | – | 2741 | 10971 | inactive
Wdr24 (WD repeat domain 24) | DRSC14151 | 92220 | 57664 | – | 2502 | 1800 | inactive
CG42810 | DRSC02533 | 87066 | 43325 | – | 2391 | 4073 | inactive
Agpat4 (1-Acylglycerol-3-phosphate O-acyltransferase 4) | DRSC10446 | 1.04e5 | – | – | 2928 | 3753 | inactive
MCPH1 (Microcephalin) | DRSC06309 | 95076 | 68592 | – | 4320 | 3115 | inactive
MCPH1 (Microcephalin) | DRSC07308 | 80851 | 41104 | – | 2057 | 3256 | inactive
